From the supplement of paper PMC12462457
Where a name gives a salt, the structure may show the parent alone. ± gives the standard deviation of the averaged measurements. The list shows a part of the results. This data set is noisy: repeats of one test often differ as much as different tests do.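 Cells were counted by imaging DAPI-stained nuclei, and cells lacking phalloidin-stained cytoplasm were excluded as dead. Each well's count was divided by the median count of the vehicle wells on the same plate, and values were averaged over two replicate plates.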

Test system: OVCAR8
Assay: cell count relative to DMSO vehicle (fold change); higher = more surviving senescent cells (less killing)
Details: senescence inducer: cisplatin 10 µM 48 h, then 6 d recovery (CP senescent), exposure time 24 h

SMILES	cell count (compound dose 1 µM)	cell count (compound dose 5 µM)
COc1cc2nccc(Oc3ccc(NC(=O)C4(C(=O)Nc5ccc(F)cc5)CC4)cc3)c2cc1OC	1.21 ± 0.14	1.05 ± 0.45
COc1cc2nccc(Oc3ccc(NC(=O)C4(C(=O)Nc5ccc(F)cc5)CC4)cc3)c2cc1OC [Cabozantinib malate (XL184)]	0.939 ± 0.068	0.694 ± 0.016
CCOc1nc2cccc(C(=O)O)c2n1Cc1ccc(-c2ccccc2-c2noc(=O)[nH]2)cc1 [Azilsartan]	0.993 ± 0.049	0.837 ± 0.45
FC1(F)N=C(c2ccc(Cl)cc2)SC1(F)c1ccc(Cl)cc1 (centres undefined) [Fluorizoline]	0.323 ± 0.014	0.091 ± 0.059
COc1cc(O)cc(O)c1C(=O)/C=C/c1ccccc1 [Cardamonin]	0.97 ± 0.034	1.08 ± 0.067
Cc1cnc(NC(=O)C2=C(O)c3ccccc3S(=O)(=O)N2C)s1	0.975 ± 0.2	0.728 ± 0.32
CC(C)Oc1ccc(C(=O)N[C@H](CNC(=O)CN(C)C)Cc2ccc(-c3cn4cccc([C@H](C)O)c4n3)cc2)cc1Cl	1.24 ± 0.2	1.08 ± 0.17
COc1ccc(/C=C/C(=O)c2c(O)cc(OC)cc2OC)cc1 [Flavokawain A]	1.198 ± 0.0064	1.36 ± 0.15
C=C(C)[C@@H]1CC[C@]2(C(=O)O)CC[C@]3(C)[C@H](CC[C@@H]4[C@@]5(C)CC[C@H](O)[C@@](C)(CO)[C@@H]5CC[C@]43C)[C@@H]12 [23-Hydroxybetulinic acid]	1.1 ± 0.073	0.975 ± 0.074
CCOc1cc2ncc(-c3cc(N)nc(F)c3)n2cc1S(=O)(=O)C(C)(C)C	1.01 ± 0.033	0.723 ± 0.026
OC[C@H]1O[C@@H](n2cnc3c(NCc4ccco4)ncnc32)[C@H](O)[C@@H]1O [Kinetin riboside]	0.843 ± 0.14	0.474 ± 0.043
O=c1cc(-c2ccc(O)c(-c3c(O)cc(O)c4c(=O)cc(-c5ccc(O)cc5)oc34)c2)oc2cc(O)cc(O)c12 [Amentoflavone]	1.05 ± 0.12	0.637 ± 0.33
COc1ccccc1S(=O)(=O)Nc1ccc2c(c1)CN(C)C(=O)N2	1.06 ± 0.08	0.524 ± 0.19
C=CC(=O)Nc1ccc2ncnc(Nc3cccc(Br)c3)c2c1	1.3 ± 0.07	0.871 ± 0.56
COc1cc(/C=C(\C#N)C(N)=O)cc(CSc2nc3ccccc3s2)c1O	1.09 ± 0.18	1.04 ± 0.17
CNCC[C@H](CSc1ccccc1)Nc1ccc(S(=O)(=O)NC(=O)c2ccc(N3CCN(CC4=C(c5ccc(Cl)cc5)CCC(C)(C)C4)CC3)cc2)cc1S(=O)(=O)C(F)(F)F [Desmorpholinyl Navitoclax-NH-Me]	0.247 ± 0.054	0.203 ± 0.029
O=C(NOC[C@H](O)CO)c1ccc(F)c(F)c1Nc1ccc(I)cc1F	1.02 ± 0.06	0.634 ± 0.16
COc1ccc2c(c1)C(c1ccc(F)cc1)=C(CN1CCCC1)CO2	1.09 ± 0.23	0.919 ± 0.023
O=C1CCC(N2Cc3cc(CNC(=O)C(F)(F)c4ccc(Cl)cc4)ccc3C2=O)C(=O)N1 (centres undefined) [Cereblon modulator 1]	1.212 ± 0.011	1.13 ± 0.23
CC1CCC2(OC1)OC1CC3C4CC=C5CC(OC6OC(CO)C(O)C(O)C6OC6OC(C)C(O)C(O)C6O)CCC5(C)C4CCC3(C)C1C2C (centres undefined) [Prosapogenin A]	1.09 ± 0.028	0.287 ± 0.16
O=c1cc(-c2ccc(O)c(O)c2)oc2cc(O[C@@H]3O[C@H](CO)[C@@H](O)[C@H](O)[C@H]3O)cc(O)c12 [Cynaroside]	1.1 ± 0.18	1.28 ± 0.31

SMILES	cell count (compound dose 1 µM)	cell count (compound dose 5 µM)
CC1=C(CO)C(=O)O[C@@H]([C@@H](C)[C@H]2CC[C@H]3[C@@H]4C[C@H]5O[C@]56[C@@H](O)C=CC(=O)[C@]6(C)[C@H]4CC[C@]23C)C1 [Withaferin A]	0.698 ± 0.17	0.023 ± 0.016
CC(=O)OC1CC2CCC1(C)C2(C)C (centres undefined) [Bornyl acetate]	0.931 ± 0.11	0.783 ± 0.019
O=C(Nc1cccc(Nc2cc(Nc3cccc(C(F)(F)F)c3)ncn2)c1)C1CC1	1.02 ± 0.083	1.07 ± 0.06
CCOC(=O)c1cnn(-c2ccccc2)c1NC(=O)c1cc2nc(-c3ccco3)cc(C(F)(F)Cl)n2n1 [Mycro 3]	1.16 ± 0.03	1.16 ± 0.13
COc1cc(C(N)=O)ccc1NC(=O)[C@@H]1N[C@@H](CC(C)(C)C)[C@@]2(C(=O)Nc3cc(Cl)ccc32)[C@H]1c1cccc(Cl)c1F	0.958 ± 0.16	0.876 ± 0.24
CC(C)n1nc(-c2cc3cc(O)ccc3[nH]2)c2c(N)ncnc21 [Torkinib (PP242)]	0.846 ± 0.13	0.525 ± 0.11
O=C(CCCCCCNC(=O)c1cnc(N(c2ccccc2)c2ccccc2)nc1)NO [Ricolinostat (ACY-1215)]	0.766 ± 0.042	0.355 ± 0.18
CC(C)CC(=O)Nc1n[nH]c2c1CN(C(=O)C1CCN(C)CC1)C2(C)C	1.11 ± 0.2	1.12 ± 0.073
CC(=O)N1c2ccc(-c3ccc(C(=O)O)cc3)cc2[C@H](Nc2ccc(Cl)cc2)C[C@@H]1C	0.677 ± 0.16	0.756 ± 0.05
Nc1nc(F)nc2c1ncn2[C@@H]1O[C@H](CO)[C@@H](O)[C@@H]1O [Fludarabine]	1.17 ± 0.15	1.16 ± 0.18
Nc1nc(Cl)nc2c1ncn2[C@@H]1O[C@H](CO)[C@@H](O)[C@@H]1F [Clofarabine]	0.847 ± 0.17	0.712 ± 0.0028
CN1CC[C@H](c2c(O)cc(O)c3c(=O)cc(-c4ccccc4Cl)oc23)[C@H](O)C1 [Flavopiridol]	0.933 ± 0.034	0.699 ± 0.011
COc1cc(/C=C/C(O)=C/C(=O)/C=C/c2ccc(O)cc2)ccc1O [Demethoxycurcumin]	0.993 ± 0.19	0.587 ± 0.061
CC(C)[C@H]1C(=O)N[C@@H](CCCNC(=N)N)C(=O)NCC(=O)N[C@@H](CC(=O)O)C(=O)N[C@H](Cc2ccccc2)C(=O)N1C [Cilengitide]	0.234 ± 0.023	0.069 ± 0.055
O=C(c1cccc(Cl)c1F)N1CCN(Cc2cccc(Nc3nccs3)n2)CC1	1.18 ± 0.021	0.559 ± 0.039
COc1cc(-c2coc3cc(O)c(OC)c(O)c3c2=O)cc(O)c1OC	0.778 ± 0.047	0.709 ± 0.028
COC1=C(OC)C(=O)C(CCCCCCCCCCO)=C(C)C1=O	0.97 ± 0.059	0.8205 ± 0.0021
O=C(Nc1c[nH]nc1-c1nc2ccc(CN3CCOCC3)cc2[nH]1)NC1CC1	0.759 ± 0.059	0.28 ± 0.079
Cc1cccc(NC(=O)Nc2ccc(-c3csc4ncnc(N)c34)cc2)c1	1.333 ± 0.0035	1.16 ± 0.54
CC(C)C[C@H](NC(=O)[C@@H](COC(C)(C)C)NC(=O)[C@H](Cc1ccc(O)cc1)NC(=O)[C@H](CO)NC(=O)[C@H](Cc1c[nH]c2ccccc12)NC(=O)[C@H](Cc1cnc[nH]1)NC(=O)[C@@H]1CCC(=O)N1)C(=O)N[C@@H](CCCNC(=N)N)C(=O)N1CCC[C@H]1C(=O)NNC(N)=O [Goserelin (acetate)]	0.865 ± 0.15	0.861 ± 0.055
C/C=C1/[C@H](O[C@@H]2O[C@H](CO)[C@@H](O)[C@H](O)[C@H]2O)OC=C(C(=O)OC)[C@H]1CC(=O)OCCc1ccc(O)c(O)c1 [Oleuropein]	0.904 ± 0.26	0.837 ± 0.21

Taken from the entries so far for reference:
SMILES	cell count (compound dose 1 µM)	cell count (compound dose 5 µM)
O=C(Nc1c[nH]nc1-c1nc2ccc(CN3CCOCC3)cc2[nH]1)NC1CC1	0.759 ± 0.059	0.28 ± 0.079
Cc1cccc(NC(=O)Nc2ccc(-c3csc4ncnc(N)c34)cc2)c1	1.333 ± 0.0035	1.16 ± 0.54
CC(C)C[C@H](NC(=O)[C@@H](COC(C)(C)C)NC(=O)[C@H](Cc1ccc(O)cc1)NC(=O)[C@H](CO)NC(=O)[C@H](Cc1c[nH]c2ccccc12)NC(=O)[C@H](Cc1cnc[nH]1)NC(=O)[C@@H]1CCC(=O)N1)C(=O)N[C@@H](CCCNC(=N)N)C(=O)N1CCC[C@H]1C(=O)NNC(N)=O [Goserelin (acetate)]	0.865 ± 0.15	0.861 ± 0.055

Further entries follow:

SMILES	cell count (compound dose 1 µM)	cell count (compound dose 5 µM)
COc1ccc(C(=O)CC2(O)C(=O)Nc3c(Cl)ccc(Cl)c32)cc1 (centres undefined)	0.812 ± 0.095	0.634 ± 0.098
CC(C)=CC(O)C/C(C)=C/COc1c2ccoc2cc2oc(=O)ccc12 (centres undefined) [Notopterol]	1.03 ± 0.072	1.09 ± 0.016
CC(C)(C)Cn1c(N)nc2ccc(-c3[nH]c(C(C)(C)C)nc3-c3ccc(F)cc3)nc21	1.29 ± 0.032	1.05 ± 0.17
CCCCC[C@H](O)/C=C/[C@@H]1[C@@H](C/C=C\CCCC(=O)O)[C@@H](O)C[C@H]1O [Dinoprost (tromethamine salt)]	1.12 ± 0.029	0.961 ± 0.43
CC(C)N(C(=O)c1cc(F)ccc1Oc1cncnc1N1CC2(CCN(CC3CCC(NS(C)(=O)=O)CC3)CC2)C1)C(C)C (centres undefined)	1.21 ± 0.17	1.11 ± 0.12
CCCCCCCCCCCCCCCCCCOP(=O)([O-])OC1CC[N+](C)(C)CC1 [Perifosine (KRX-0401)]	0.986 ± 0.0014	1.18 ± 0.2
O=C(Nc1ccc(OC(F)(F)F)cc1)c1sccc1NCc1ccnc2ccccc12	1.05 ± 0.035	0.887 ± 0.21
N#Cc1ccc(-c2c(-c3ncn[nH]3)sc(N3CCOCC3)c2C#N)c(F)c1	0.9845 ± 0.0035	0.546 ± 0.0092
COc1cc2c(cc1OC)[C@@H](Cc1ccc(Oc3cc(C[C@@H]4c5cc(OC)c(OC)cc5CCN4C)ccc3O)cc1)N(C)CC2 [Dauricine]	1.17 ± 0.11	0.7055 ± 0.0021
CC(=O)O[C@H](CC=C(C)C)C1=CC(=O)c2c(O)ccc(O)c2C1=O [Acetylshikonin]	1.36 ± 0.36	0.859 ± 0.093
COc1ccc(C[C@@H]2c3cc(Oc4cc(C[C@@H]5c6cc(O)c(OC)cc6CCN5C)ccc4O)c(OC)cc3CCN2C)cc1 [Isoliensinine]	1.0675 ± 0.00071	0.737 ± 0.29
OCCN1CCN(CCCN2c3ccccc3Sc3ccc(Cl)cc32)CC1	0.811 ± 0.079	0.72 ± 0.013
O=C(c1ccc(C(=O)N2CCC(N3CCCC3)CC2)c(Nc2ccccc2)c1)N1CCC(N2CCCC2)CC1	0.8345 ± 0.0021	0.828 ± 0.081
CCC[C@H](N[C@@H](C)C(=O)N1[C@H](C(=O)O)C[C@@H]2CCCC[C@@H]21)C(=O)OCC [Perindopril (erbumine)]	1.06 ± 0.045	0.956 ± 0.41
O=c1c(-c2ccc(O)cc2)coc2cc(O[C@@H]3O[C@H](CO)[C@@H](O)[C@H](O)[C@H]3O)cc(O)c12 [Genistin]	1.07 ± 0.13	0.87 ± 0.2
O=c1c2ccccc2nc(/C=C/c2cccnc2)n1Cc1ccccc1 [RAD51 Inhibitor B02]	1.18 ± 0.012	0.771 ± 0.023
COC1=CC(c2cc3ccccc3[nH]2)=N/C1=C\c1[nH]c(C)cc1C [Obatoclax (Mesylate)]	0.54 ± 0.019	0.305 ± 0.14
COC(=O)C1=CO[C@@H](O[C@@H]2O[C@H](CO)[C@@H](O)[C@H](O)[C@H]2O)[C@@H]2[C@@H](C)[C@@H](O)C[C@H]12 [Loganin]	0.967 ± 0.098	0.846 ± 0.081
C[C@@H]1C[C@H](N)C[C@H](c2ccncc2NC(=O)c2ccc(F)c(-c3c(F)cccc3F)n2)C1 [PIM-447 (dihydrochloride)]	0.844 ± 0.041	0.724 ± 0.03
CCCC(=O)Nc1ncnc2c1ncn2[C@@H]1O[C@@H]2COP(=O)(O)O[C@H]2[C@H]1OC(=O)CCC [Bucladesine (calcium)]	0.916 ± 0.17	0.812 ± 0.26
